The record followed here is publication PMC12209437.

Amino acid sequences for entries named in this document (tags omitted).
UniProt P01106: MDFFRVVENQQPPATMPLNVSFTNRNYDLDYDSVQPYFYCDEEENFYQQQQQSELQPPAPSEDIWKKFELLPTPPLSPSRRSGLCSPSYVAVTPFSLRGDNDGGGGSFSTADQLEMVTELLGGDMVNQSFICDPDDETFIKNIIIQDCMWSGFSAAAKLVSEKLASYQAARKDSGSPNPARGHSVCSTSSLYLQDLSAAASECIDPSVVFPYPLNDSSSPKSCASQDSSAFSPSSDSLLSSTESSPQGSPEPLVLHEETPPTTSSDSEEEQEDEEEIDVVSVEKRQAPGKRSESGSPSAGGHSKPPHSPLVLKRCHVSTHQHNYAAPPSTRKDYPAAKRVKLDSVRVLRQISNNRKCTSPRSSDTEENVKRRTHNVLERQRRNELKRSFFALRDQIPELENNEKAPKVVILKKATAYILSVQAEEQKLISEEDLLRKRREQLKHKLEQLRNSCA

Assay [1] concerns the target endogenous c-MYC (human (endogenous in HCT-116 and patient-derived CRC-SCs)) (UniProt P01106). Description: co-IP; endogenous proteins, whole-cell lysates of patient-derived CRC-SCs, anti-SMYD3 or anti-c-MYC on Dynabeads Protein A, IgG as negative control; also after treatment with the covalent SMYD3 inhibitor EM127, which did not prevent complex formation (Supplementary Fig. 4f).

Assay [2] shares this target. The assay can be described thus: co-IP; endogenous proteins, HCT-116 cell lysate (50 mM Tris-HCl pH 7.4, 5 mM EDTA, 250 mM NaCl, 1% Triton X-100), anti-SMYD3 or anti-c-MYC on Dynabeads Protein A, IgG as negative control.

Results are given in words; binding and its absence hold for the method and conditions named. In cells and extracts the contact can be indirect. Some results given as binding are weak or reduced against the parent protein; the word gives no strength.

B1: endogenous SMYD3 (enzyme, UniProt Q9H7B4 1-428)
chain: MEPLKVEKFATAKRGNGLRAVTPLRPGELLFRSDPLAYTVCKGSRGVVCDRCLLGKEKLMRCSQCRVAKYCSAKCQKKAWPDHKRECKCLKSCKPRYPPDSVRLLGRVVFKLMDGAPSESEKLYSFYDLESNINKLTEDKKEGLRQLVMTFQHFMREEIQDASQLPPAFDLFEAFAKVICNSFTICNAEMQEVGVGLYPSISLLNHSCDPNCSIVFNGPHLLLRAVRDIEVGEELTICYLDMLMTSEERRKQLRDQYCFECDCFRCQTQDKDADMLTGDEQVWKEVQESLKKIEELKAHWKWEQVLAMCQAIISSNSERLPDINIYQLKVLDCAMDACINLGLLEEALFYGTRTMEPYRIFFPGSHPVRGVQVMKVGKLQLHQGMFPQAMKNLRLAFDIMRVTHGREHSLIEDLILLLEECDANIRAS
Take B1: the binding entry in assay [1] and in assay [2] was “binds” each time.
